Assay results published in PubChem BioAssay AID504648 (National Center for Advancing Translational Sciences (NCATS), 2011).
Among all 390,000 compounds or so, about 610 (0.16%) were called active. The inconclusive results got no clear call from the source; some entries with a clear call stand among them for comparison. The call rests on the fitted dose curve; in most records, active means well fitted inhibition curve with a large enough effect; inconclusive means small, poorly fitted or top-dose-only effect, or effect the other way, or another doubt; inactive means no such curve, though single readings can be large or run the other way. Where the call is inconclusive, the potency comes from a doubtful curve fit.

assay: Nrf2 qHTS screen for inhibitors: counterscreen for cytotoxicity; conditions: A549 ARE-Fluc cells, CellTiter-Fluor viability, 18-24 h; activity change, negative = cytotoxicity: at 46 µM (top of the series)
Method in brief: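 Cytotoxicity counterscreen: CellTiter-Fluor fluorescence was measured in A549 ARE_Fluc cells after 18-24 h of compound exposure in a concentration series. The subsequent BugLite luminescent read reports ARE-luciferase activity.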
On the % scale 0 is the no-effect control and ±100 the full control effect; potency means the concentration at half of the fitted maximal effect.

SMILES | activity change, negative = cytotoxicity | Potency
CCN(CCCNC(=O)CCn1c(=O)[nH]c2ccccc2c1=O)c1cccc(C)c1 | inactive: 0.855% | 
Cc1ccc(NC(=S)N(CCN(C)C)C(C)c2ccco2)cc1Cl (stereo not given) | inactive: 13.9% | 
COc1ccccc1-c1cc(C(F)(F)F)nc(S(=O)(=O)CCCC(=O)Nc2cc(C)on2)n1 |  | inconclusive: 25.9 µM [falling, partial curve, poor fit]
COc1ccc(-n2nc(C(=O)NCC(=O)Nc3ccccn3)c3ccccc3c2=O)cc1 |  | inconclusive: 16.4 µM [falling, single point]
N=c1c(C(=O)NC2CCCC2)cc2c(=O)n3ccccc3nc2n1C1CCCCC1 |  | inconclusive: 29.1 µM [activator, partial curve, poor fit]
N#CC1=C(N)Oc2c(sc3ccccc23)C1c1ccco1 (stereo not given) |  | inconclusive: 18.4 µM [falling, single point]
CC(C)=CCC/C(C)=C/CNC(=O)C[C@H]1C[C@H](C(=O)N2CCOCC2)[C@@]2(CCC3CCCC3)c3[nH]c4cc(CCC(=O)N(C)C)ccc4c3CCN2C1=O |  | inconclusive: 29.1 µM [falling, single point]
O=C(Nc1cccc(Cl)c1)Nc1nccs1 | inactive: 4.13% | 
COc1cc(NC(=O)c2cc(S(=O)(=O)N3CCCCC3)ccc2N2CCOCC2)cc(OC)c1 | inactive: -5.21% | 
CCn1cc(/C=C2/SC(=S)NC2=O)c(C)n1 |  | active: 18.4 µM
CCN(c1ccccc1)S(=O)(=O)c1ccc(Oc2ccccc2)c(N)c1 |  | inconclusive: 29.1 µM [falling, single point]
C/C=C/c1ccc(OCCCCN2CCC(C)CC2)c(OC)c1 |  | inconclusive: 29.1 µM [falling, partial curve, poor fit]
Cc1occc1C(=O)Nc1ccc(S(=O)(=O)N2CCN(C)CC2)cc1 |  | inconclusive: 5.8 µM [activator, full curve, poor fit]
Cc1ccc(S(=O)(=O)Nc2cccc3cccnc23)c([N+](=O)[O-])c1 |  | inconclusive: 29.1 µM [falling, single point]
Cc1ccc(C)c(NC(=O)c2cc(-c3ccccc3)nn2-c2ccccc2)c1 |  | inconclusive: 16.4 µM [activator, partial curve, poor fit]
COc1ccc(-c2noc(-c3nnn(-c4ccc(C(C)C)cc4)c3C)n2)cc1OC | inactive: 0.755% | 
CCOc1ccccc1C(=O)Nc1ccc2nc3c(c(Nc4ccc(OC)c(OC)c4)c2c1)CCCC3 |  | inconclusive: 14.6 µM [falling, single point]
O=[N+]([O-])c1ccc(Nc2ccccc2)c2nonc12 |  | inconclusive: 23.1 µM [falling, partial curve, poor fit]
COc1ccccc1-c1sc2cc3c(cc2c1-c1ccc(OCCN2CCCCC2)cc1)OCO3 |  | inconclusive: 29.1 µM [falling, single point]
CN(C)c1nc(-c2ccccn2)nnc1-c1ccccc1 |  | inconclusive: 11.6 µM [falling, partial curve, poor fit]
CN(C)CCNC(=O)c1scc2c1CCCC2 |  | inconclusive: 23.1 µM [activator, partial curve, poor fit]
O=C(NCCCN1CCN(c2ccccc2)CC1)c1ccc2nc(CCc3ccccc3)oc2c1 |  | inconclusive: 23.1 µM [falling, single point]

SMILES | activity change, negative = cytotoxicity | Potency
C=CCn1c(=O)/c(=C/c2ccc(O)cc2)s/c1=C(/C#N)c1nnc2n1CCCCC2 |  | inconclusive: 29.1 µM [falling, single point]
O=C(c1cc(-c2cccnc2)nc2ccccc12)N1CCCc2ccccc21 |  | inconclusive: 29.1 µM [falling, single point]
CCCC(CCC(=O)Nc1ccc(S(N)(=O)=O)cc1)C(=O)O (stereo not given) | inactive: -9.5% | 
Cc1ccc(-n2c(-c3cccc(C)c3)nc3c(cnn3-c3ccccc3)c2=O)cc1 | inactive: -1.82% | 
CC1=C/C(=C(\c2cc(C)c(O)c(Br)c2)c2ccccc2S(=O)(=O)O)C=C(Br)C1=O |  | active: 16.4 µM
N/C(=N\OC(=O)c1ccc(Cl)cc1)c1[nH]ncc1Br |  | inconclusive: 5.8 µM [activator, full curve]
Cc1ccc(S(=O)(=O)NC(CC(=O)NCC2CCCO2)c2ccco2)cc1 (stereo not given) |  | inconclusive: 18.4 µM [activator, single point]
COc1ccc(C2/C=C\CN([S+](=O)([O-])c3ccc4ccccc4c3)C(C)C(=O)N2Cc2ccc(F)cc2)cc1 (stereo not given) | inactive: -1.09% | 
CCCCCCc1nc2ccccc2c(=O)n1NC(=O)c1c(O)c2c(n(CC(C)C)c1=O)CCCC2 |  | inconclusive: 20.6 µM [falling, partial curve, poor fit]
CCC1CCCCN1CCCNC(=O)c1sc2nc(C)cc(C)c2c1-n1cccc1 (stereo not given) | inactive: 1.57% | 
Clc1cc(Br)ccc1OCCCNCc1ccccc1 |  | inconclusive: 23.1 µM [activator, partial curve, poor fit]
COc1ccccc1NC(=O)c1cc2c(n(-c3ccc(C)cc3)c1=O)CC(C)(C)CC2=O | inactive: 2.39% | 
COc1cccc(C2C(C#N)=C(N)N(N(C)C)C3=C2C(=O)CC(C)(C)C3)c1 (stereo not given) | inactive: -2.15% | 
O=C(Nc1ccc2c(c1)OCCO2)c1ccc(Cl)c(S(=O)(=O)N2CCCCC2)c1 |  | inconclusive: 29.1 µM [falling, single point]
Cc1ccc(CNC(=O)C2CCC(=O)N(Cc3ccc(Cl)cc3)C2)cc1F (stereo not given) |  | inconclusive: 18.4 µM [falling, single point]
COc1ccc(-c2cc(C(=O)Nc3ccc(C)c(N)c3)c3ccccc3n2)cc1 |  | inconclusive: 29.1 µM [falling, partial curve, poor fit]
c1ccc(-c2cc(-c3nnc4n3N=C(c3ccc5ccccc5c3)CS4)[nH]n2)cc1 |  | inconclusive: 29.1 µM [falling, single point]
COc1ccc(-n2cnc3c(N)nc(N)nc32)cc1 | inactive: -2.25% | 
CCc1ccc(S(=O)(=O)Nc2c(NC3CCCCC3)c3ccccc3oc2=O)cc1 | inactive: -18.4% | 
COCCOC(=O)c1[nH]c2c(c1C)C(=O)CC(c1ccccc1)C2 (stereo not given) |  | inconclusive: 2.06 µM [falling, full curve]
COc1ccc(-c2nn(-c3ccccc3)cc2/C=C2/SC(=S)N(CCC(=O)O)C2=O)cc1 |  | inconclusive: 18.4 µM [falling, single point]
Cc1cccc(C)c1Nc1c(-c2ccccn2)nc2ccccn12 |  | inconclusive: 32.6 µM [falling, single point]

SMILES | activity change, negative = cytotoxicity | Potency
CN(Cc1ccccc1)c1nc2c(c(=O)[nH]c(=O)n2C)n1CCCc1ccccc1 |  | inconclusive: 32.6 µM [falling, single point]
CCOC(=O)c1ccc(NC(=O)CC2C(=O)N(c3ccc(F)cc3)C(=O)N2CCC(C)C)cc1 (stereo not given) |  | inconclusive: 18.4 µM [falling, single point]
NS(=O)(=O)c1ccc(NC(=O)COC(=O)/C(=C/c2cccs2)c2cccs2)cc1 |  | inconclusive: 23.1 µM [falling, single point]
COc1ccc(CCNS(=O)(=O)c2cc3c4c(c2)C(C)C(=O)N4CCC3)cc1OC (stereo not given) |  | inconclusive: 4.61 µM [activator, single point]
CCCCNC(=O)CSC1=Nc2ccccc2C2=NC(CCC(=O)NCc3ccccc3OC)C(=O)N12 (stereo not given) | inactive: 2.23% | 
CCN(CC)C(=O)C1CCN(c2cc(C)nc3c(-c4ccc(OC)c(OC)c4)c(C)nn23)CC1 | inactive: 0.113% | 
COCCCNC(=O)C(C#N)c1nc2ccccc2nc1N1CCN(Cc2ccccc2)CC1 (stereo not given) |  | inconclusive: 9.2 µM [falling, partial curve]
Cc1cnc(NC(=O)c2ccc3c(c2)OCCO3)s1 |  | inconclusive: 5.8 µM [falling, partial curve, poor fit]
O=c1c2sccc2n(Cc2cccc(F)c2)c(=O)n1-c1ccc(F)cc1 | inactive: 13.3% | 
COc1cc2nc(Nc3ccc(C)c(C)c3)nc(N)c2cc1OC |  | inconclusive: 32.6 µM [falling, single point]
CCOC(=O)c1ccc(NC(=O)Cn2cc(C(=O)c3cccs3)c3ccccc32)cc1 |  | inconclusive: 11.6 µM [falling, partial curve, poor fit]
FC(F)(F)C(Oc1nc(Nc2ccc(Cl)cc2)nc(N2CCOCC2)n1)C(F)(F)F |  | inconclusive: 5.17 µM [activator, single point]
CCOc1ccc(S(=O)(=O)N(CC(=O)N/N=C/c2ccc(-c3ccc([N+](=O)[O-])cc3)o2)c2ccccc2)cc1 |  | inconclusive: 23.1 µM [falling, single point]
COc1ccc(CCNC(=O)CCCn2c(=O)c3ccccc3n(CC(=O)Nc3ccc(C)cc3Cl)c2=O)cc1OC | inactive: -13.6% | 
C=CCn1c(SCC(=O)Nc2sccc2C(N)=O)nc2sc(CC)cc2c1=O |  | inconclusive: 16.4 µM [falling, single point]
CC(C)Cn1c(S(=O)(=O)O)nc2ccccc21 | inactive: -3.38% | 
O=C(N/C(=C\c1ccc(Br)cc1)c1nc2ccccc2[nH]1)c1ccco1 |  | inconclusive: 29.1 µM [falling, partial curve, poor fit]
COCCN1C(=O)/C(=C/c2ccc(OCc3ccc(C(=O)O)cc3)c(OC)c2)SC1=Nc1ccccc1 |  | active: 20.6 µM
COc1ccc(C(=O)c2c(C(F)(F)F)oc3c2C(=O)c2ccccc2C3=O)cc1OC |  | inconclusive: 18.4 µM [falling, single point]
Cc1ccc(-c2c(C(=O)N(C)Cc3ccccc3)oc(=O)c3ccccc23)cc1 |  | inconclusive: 16.4 µM [activator, partial curve, poor fit]
CC(C)NS(=O)(=O)c1ccc(NC(=O)C(C)Oc2ccc(C(=O)c3ccccc3)cc2)cc1 (stereo not given) |  | inconclusive: 29.1 µM [falling, partial curve, poor fit]

Two entries from above, set out differently:
SMILES	activity change, negative = cytotoxicity	Potency
O=c1c2sccc2n(Cc2cccc(F)c2)c(=O)n1-c1ccc(F)cc1	inactive: 13.3%	
CC(C)Cn1c(S(=O)(=O)O)nc2ccccc21	inactive: -3.38%	

Quoted at random: three records from the list
SMILES | activity change, negative = cytotoxicity | Potency
COc1ccc(-c2noc(-c3nnn(-c4ccc(C(C)C)cc4)c3C)n2)cc1OC | inactive: 0.755% | 
COc1ccccc1-c1sc2cc3c(cc2c1-c1ccc(OCCN2CCCCC2)cc1)OCO3 |  | inconclusive: 29.1 µM [falling, single point]
COCCCNC(=O)C(C#N)c1nc2ccccc2nc1N1CCN(Cc2ccccc2)CC1 (stereo not given) |  | inconclusive: 9.2 µM [falling, partial curve]
